# Test results from PubChem BioAssay AID1347426 (Functional Genomics Laboratory (NCATS/FGL), 2020).
# The whole screen tested about 31,000 sequences, of which about 1,400 (4.5%) were called active.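 The calls were made as follows: active = median seed-adjusted z-score above 1 or below -1; inactive = the rest.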 Some of the results follow.
# Assay: Novel Modifiers of Survival Motor Neuron (SMN) Protein: Gene Identification via Genome-wide siRNA Screen;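 also: luminescence tracks full-length SMN protein made from the SMN2 reporter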
# Conditions: HEK293T SMN2-luciferase reporter, siRNA knockdown, 72 h; actives lie on both sides
# Summary of the method: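 Each of three siRNAs per gene is reverse-transfected (1 pmol) into reporter HEK293T cells whose luciferase output tracks SMN protein level. After 72 h culture, ONE-Glo luminescence is control-normalized, log10-transformed and MAD-standardized; Common Seed Analysis deprioritizes seed-driven hits.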
row,Sequence,median seed-adjusted z-score
1,GGAUCCAGAUCUGCAAUAATT against CYP2C9,inactive: 0.246
2,GCAAGAUCAAGGACCGCUATT against LMO1,inactive: 0.104
3,CUGUCUCAGUGUUUGGUUATT against PIGZ,inactive: 0.74
4,ACAUGUUUUCUGACGGCAATT against BAX,inactive: -0.478
5,CCGAAGACCUGGUUCCUAUTT against DDX51,inactive: -0.0715
6,GCAGCACGCCUGAAUUUGATT against ESX1,inactive: 0.275
7,GGAAACAACCAAACCAGAATT against USP27X,inactive: 0.43
8,AGACAGAGGCUACGUGUUUTT against IP6K1,inactive: -0.317
9,CUCUAUAACAAGUAUAUCATT against STAMBP,inactive: 0.511
10,GACCUUCUAUGGGCAUUUUTT against PRODH,inactive: 0.497
11,ACCAUUAAAUCUGAAAGUATT against FABP4,inactive: 0.227
12,GCAACAAUAUUGCUCUAGATT against GALNT17,inactive: 0.392
13,GCUUUUCCAUUAUAAGGCATT against FOXE1,inactive: -0.316
14,GAUUAGCAGAGGUGCUAAATT against HMGN3,inactive: -0.182
15,CAGUUGAAAGUAUAGAAAATT against SFXN4,inactive: -0.174
16,GGCAGGUUAUAUUGCUUUUTT against SLC35B2,inactive: -0.313
17,GAUCUGCAAGAGUUUCGUUTT against SPINT1,inactive: 0.0172
18,GACUGGGAAUCUAAGCAGATT against BTNL3,inactive: 0
19,GUCGUUUACCUAAUGGUAATT against USP12,inactive: 0.121
20,CCUCCACAGUGUGAUUACATT against NCK1,inactive: -0.0795
21,GGAAAAGGGUUUUAGUAGATT against DNAL4,inactive: 0
22,GCAAUAUUUUGAGCAGUUUTT against MSI1,inactive: -0.806
23,GCUUAGCACCUGGUGCACATT against LSR,inactive: 0.306

row,Sequence,median seed-adjusted z-score
1,GACUAUUACCACCAGAUGATT against GLI2,inactive: -0.796
2,GCCUUUUAAUUGCAUUGAUTT against ZNF471,inactive: 0.364
3,AACUAACUCUGUGAACAUATT against TRIAP1,inactive: 0.253
4,GAUGCGAUGUGACAAAGAUTT against APOL5,inactive: -0.209
5,AUACAUCCAUUGUUCAGGATT against POLR1C,inactive: -0.0299
6,GCUGUGCACAUUGCCCAUATT against AARSD1,inactive: -0.156
7,GAUUGAUGCUGGAAGUAGATT against PMPCB,inactive: 0.507
8,GGAGACCAACUGCAACUUUTT against ZACN,inactive: 0.065
9,GCUCUUUACUUCAAUAUGATT against CHM,inactive: 0.743
10,GGAUCGAACCCAUGGAUCATT against ROCK2,inactive: -0.149
11,AGAAGAGCAUUGAGGUGCATT against FCRLB,inactive: -0.00684
12,CGCUCUUCGUCUACUCCGATT against DRD4,inactive: -0.183
13,CGAUUAUGUAGCUACGAGATT against CDKL4,inactive: 0.13
14,GGAAGUCUACGGCUCCACATT against SLC27A5,inactive: 0.441
15,GUCAUAGACUUAAAGGACUTT against SPSB3,inactive: 0.457
16,AGCCUGUAGCUUAAACUUATT against KCTD12,inactive: 0.431
17,CAACCUGAAUUAAAGUCUATT against DARC,inactive: 0.0814
18,ACCUGUACCUCGAAGUCUATT against GPBAR1,inactive: -0.00293
19,GCAGGAACGAGACCAGCAATT against HRH2,inactive: -0.257
20,GUUACGCCCUGAUUCUAAATT against MAT2A,active: -1.9
21,GCAAGGUGGUGUCCCUGUATT against BOK,inactive: 0
22,GUAUGCGACUGGGAUCUUATT against HP,inactive: 0
23,GCCCUCUUGUUCUAACUGATT against EIF5,inactive: 0.362

row,Sequence,median seed-adjusted z-score
1,GGACCAUCCUGAUUAUCCATT against AKR1C4,inactive: -0.0323
2,GGAAGGAUAUGAGCAUAGATT against KLHL4,inactive: 0
3,GAACUUCGAGAGUCAAAUATT against MDS1,inactive: 0.0345
4,GGAAUAUUAUGACUACAGUTT against UGT2B15,inactive: 0.421
5,CCAACGACCUGGUUAUGAATT against FBP1,inactive: -0.221
6,GGAUAGUUUUUCGAAUUAATT against MYO9A,inactive: -0.567
7,GCACACUUCUACUAUGCUATT against PAQR7,inactive: -0.0406
8,GGUCAACCAGAAUACAUAUTT against DNAI1,inactive: -0.783
9,CUAAUUGUCUCACAGAAAATT against HDC,inactive: -0.0146
10,GCCUCUUCUGGAAACGAAATT against JMJD1B,inactive: 0.402
11,GGACAAUCUUAUUCCUAUUTT against CFHR4,inactive: -0.0972
12,GCCUUGAUGCUGAUCAUCATT against MEP1B,active: 1.46
13,CGGUCCAAAUUGAAAGCGATT against STX1B,inactive: 0.229
14,CACUCAAAGUGCCUCUAAATT against SLC2A4RG,inactive: -0.0232
15,GAUGAUGACAAUUAUGUGATT against RFNG,inactive: 0
16,CAACGAAGAGGGCAUGUUUTT against MEOX2,active: 1.36
17,CAGUUUAUCUGCAUCCGAATT against HDAC6,inactive: 0.0457
18,GAGCUUACUUUGCCUGGAATT against PSMA2,inactive: -0.54
19,GGAAUAGUCCCAUUAGCAATT against PDIA3,inactive: -0.619
20,GCAGCAUCCUAGAGGAAAATT against EIF2B5,inactive: -0.432
21,CAGACUCGAUGAUCCGGAUTT against ATP1B4,inactive: 0.664
22,GUGGAUUUCUUUAACCAGATT against MOBKL1B,inactive: 0.31
23,GCACACUUGUAGUAGAUUATT against SOAT1,inactive: 0.409

# No new results follow: entries from further up.
row,Sequence,median seed-adjusted z-score
11,ACCAUUAAAUCUGAAAGUATT against FABP4,inactive: 0.227
12,GCAACAAUAUUGCUCUAGATT against GALNT17,inactive: 0.392
13,GCUUUUCCAUUAUAAGGCATT against FOXE1,inactive: -0.316
14,GAUUAGCAGAGGUGCUAAATT against HMGN3,inactive: -0.182
15,CAGUUGAAAGUAUAGAAAATT against SFXN4,inactive: -0.174
16,GGCAGGUUAUAUUGCUUUUTT against SLC35B2,inactive: -0.313
17,GAUCUGCAAGAGUUUCGUUTT against SPINT1,inactive: 0.0172
18,GACUGGGAAUCUAAGCAGATT against BTNL3,inactive: 0
19,GUCGUUUACCUAAUGGUAATT against USP12,inactive: 0.121
20,CCUCCACAGUGUGAUUACATT against NCK1,inactive: -0.0795
21,GGAAAAGGGUUUUAGUAGATT against DNAL4,inactive: 0
22,GCAAUAUUUUGAGCAGUUUTT against MSI1,inactive: -0.806
23,GCUUAGCACCUGGUGCACATT against LSR,inactive: 0.306
